Experimental data from patent US20080193921, “Methods to identify agents that bind the flap-tip helix of RNA polymerase” (Wisconsin Alumni Research Foundation, published 2008).

Key:
[1] = system: RNA polymerase beta F934A (Escherichia coli); experiment: binding assay; conditions: 5-iodoU in hairpin loop; 5-iodoU crosslink retained in paused TEC; purified recombinant protein; label: 32P; variant of his pause RNA hairpin, wild-type
[2] = system: RNA polymerase sigma70 holoenzyme, wild-type (Escherichia coli); experiment: activity assay; conditions: in vitro transcription, purified recombinant protein, protein details: core plus sigma70

CCUGCUUCGGCAGGCGAUGUGUGCUG [his pause RNA, tetraloop hairpin]
binding result [1]: binds

CACTAATTTATTCCATGTCACACTTTTCGCATCTTTTTTATGCTATAATTATTTCATCGAGAGGGACACGGGGAAACACCACCATCATCACCATCATCCTGACTAGTCTTT (double strand) [galP1 consensus -10 promoter template]
activity on this sequence ([2]; -35 independent promoter): active

GAGAGACAACTTAAAGAGACTTAAAAGATTAATTTAAAATTTATCAAAAAGAGTATTGACTTAAAGTCTAACCTATAGGATACTTACAGCCATCGAGAGGGACACGGGGAAACACCACCATCATCACCATCATCCTGACTAGTCTTT (double strand) [T7 A1 promoter template]
activity on this sequence ([2]; 25 nM RNAP, 50 nM template, heparin, 37 C): active

For part of these data: Construct, isoform or probe ends are uncertain for at least one entry.
